Results from PMC10163288.
The other results are listed elsewhere or left out.

B1: il2ra_site2_2erj_normal_mot_HHH_b1_05537_000000062_0001_1_19_H_._HHH_b1_00607_0001_0001200011_0000001_0 (protein)
chain: SSSSSDREEVERLLREIEEALEEGDKEKVVELLLEVARLALEIGDEELSYEVYRLMRLNASSSSS
B2: il2ra_site1_3nfp_normal_mot_HHH_b2_00696_000000030_0001_18_34_H_._HHH_b1_05030_0001_0000400016_0000001_0_af2pred_0001_af2pred (protein)
chain: SSSSSSEAEEIARELEQRIREAKSKRERIHLLIKALLIVQELKNKEALEIIEELVKEIRDSSSSS
B3: il2ra_site1_2b5i_normal_mot_HHH_b2_04910_000000118_0001_1_19_H_._HHH_b2_02918_af2_0001_0000300006_0000001_0_af2pred_0001_af2pred (protein)
chain: SSSSSSEKEEARRLLEEADEAFRRGDDEEARKLLEEALQAAEEANNPLLARSIESMLEQVSSSSS
B4: il2ra_site2_2erj_sap_18_mot_HHH_b2_03659_000000135_0001_38_56_H_._HHH_b1_00300_af2_0001_0000100004_0000001_0_0001 (protein)
chain: SSSSSEEEVEELIKEAEQLLEEGDPEKAEEVLSRAFELAYEANDPELAAKVIELIAKIAKSSSSS
B5: il2ra_site2_2erj_sap_17_mot_HHH_b1_05666_000000037_0001_42_55_H_._HHH_b2_00709_0001_0000200006_0000001_0_0001 (protein)
chain: SSSSSDEIHRAYELAEELIKLVQNNDRERFEEISEEFREIVERLKSRSAEEILEWLERHLSSSSS
B6: il2ra_site1_2b5i_sap_26_mot_0e1366a1e871129823ff0d9eb171cf03_0001_1_000000050_0001_36_50_H_._23ebfa62fd02fe94bef511ea015e2715_0001_0001_0000500051_0000001_0_000 … (protein)
chain: SERFIEMVIRALRMGSPVAERAAKNLAKLLKRAGDLELFREFVERLLEETGDPAYEFLLEVLEET
B7: il2ra_site1_1z92_normal_mot_HHH_b1_03515_000000289_0001_1_19_H_._HHH_b1_04173_af2_0001_0000200014_0000001_0 (protein)
chain: SSSSSSEEQAAKAIVRAAVRANRLSEEQKEELEELAKELVERGLDPLEIIKILDRLAARLSSSSS
B8: il2ra_site1_1z92_sap_18_mot_HHH_b1_00368_000000203_0001_23_39_H_._d7cfadeb27be910639eb6e95e3396c32_0001_af2_0001_0000300014_0000001_0_0001 (protein)
chain: SSSSDEELEERVKQFAEELVKELGLDEHAREALEKDAEAAVRLGFSERSIKLALERAARRASSSS
B9: il2ra_site1_3nfp_normal_mot_HHH_b2_04366_af2_000000103_0001_1_19_H_._HHH_b1_03730_af2_0001_0000300009_0000001_0 (protein)
chain: SSSSDESERILEEAEELLKEAAEEGDPRRAQKILREAVRLLSELGNFEAVERLYEFVRELISSSS
B10: il2ra_site1_2b5i_sap_15_mot_HHH_b1_05188_af2_000000065_0001_43_56_H_._HHH_b2_08185_0001_0000400035_0000001_0_0001_af2pred_dldesign_0_af2pred (protein)
chain: SSSSAEVEARRAEVKARAAALLAAGRKREALELLFSAAKEAEEAGREDLYEELYELAKKLSSSSS
B11: il2ra_site1_2b5i_normal_mot_HHH_b1_00095_000000042_0001_1_14_H_._HHH_b1_08235_0001_0000300013_0000001_0_af2pred_dldesign_0_af2pred (protein)
chain: SSSSLREQLTRLQDIHDELAALGDEEAEDEVDRLYEEFARTKDPSLLDRAEALLEEAKKKSSSSS
B12: il2ra_site1_3nfp_sap_17_mot_HHH_b1_05070_af2_000000282_0001_43_57_H_._HHH_b1_00176_0001_0000300005_0000001_0_0001_af2pred_0001_af2pred_swapped (protein)
chain: SSSSDEEKQKAFRLLQEANRLAAKGNEEEAEKLLEEAKELVEEVGNEVLKRIIEEALKILSSSSS
B13: il2ra_site2_3nfp_sap_16_mot_HHH_b1_05628_af2_000000064_0001_19_35_H_._HHH_b1_05613_af2_0001_0000700016_0000001_0_0001 (protein)
chain: SSSSSEEELRELVEQLRELVERNDKEEFRRLLAEAAHLAFELGDAEVFFRLAELLYEIEGSSSSS
B14: il2ra_site1_1z92_sap_25_mot_HHH_b1_08133_000000119_0001_1_19_H_._HHH_b2_04294_0001_0000400037_0000001_0_0001_af2pred_0001_af2pred (protein)
chain: SSSSSSSEVEEEAEELLEELKERGDEKELKSLELLLRAVKRSQNPRLREFLKKALEEQSSSSSSS
B15: il2ra_site1_2b5i_normal_mot_0e5a94e4a5addaac739760efb25f0f5d_0001_000000289_0001_18_32_H_._HHH_b1_07823_0001_0000400013_0000001_0_af2pred_dldesign_0_af2pred (protein)
chain: SSSSSSLEELTKEASELVARSNDRELLKELTKLIYHLTMTKDPRLVEELEAFLARARAEESSSSS
B16: il2ra_site1_3nfp_normal_mot_46d73865503fbedcaf0f3a45445d594c_0001_af2_000000151_0001_1_12_H_._83e3d52192ce5e5dff776c34d7d6184e_0001_1_0001_0000300011_0000001_1_ … (protein)
chain: SEEEVLRKLEELAKTPEERALVRLIEQAVEVYNIPPEEALRLLLETLRKAGDPRAELVEELARLG
B17: il2ra_site1_1z92_sap_12_mot_HHH_b2_03933_000000056_0001_18_34_H_._651d3f7ee3e35a0effb0e65a459b730c_0001_1_0001_0000400083_0000001_0_0001_af2pred_0001_af2pred (protein)
chain: DEEEAEELLREILKEQGNHEALERLLEHAERTFGDPKEALKALIRVALQLTGDPRLEEAEKLVRK
B18: il2ra_site2_2erj_normal_mot_HHH_eva_0385_af2_000000151_0001_25_42_H_._HHH_b2_02181_0001_0000100006_0000001_0_af2pred_0001_af2pred (protein)
chain: SSSSSSEEERKEVEELLEEAKKIEDKEEAAKVLQEAAELADKIDDPEAVELVEEVLRKLSSSSSS

target: il2ra, P01589; test: yeast display titration

Apparent Kd, inactive:
B1 no binding seen
B2 no binding seen
B3 no binding seen
B4 no binding seen
B5 no binding seen
B6 no binding seen
B7 no binding seen
B8 no binding seen
B9 no binding seen
B10 no binding seen
B11 no binding seen
B12 no binding seen
B13 no binding seen
B14 no binding seen
B15 no binding seen
B16 no binding seen
B17 no binding seen
B18 no binding seen

As a short view, some entries already given.
Apparent Kd, inactive:
B4 no binding seen
B5 no binding seen
